Data taken from patent US12559525B2 (priority 2021, dated 2026).

Test: general procedure: Fmoc solid-phase peptide synthesis
Conditions: conjugation step

C(Mal-Cy5)-GGG-QVTTGSNLVEFTEESLGIVTGAVSDHTTVEDT
final HPLC purity: >95%
